Laboratory results taken from PubChem BioAssay AID651599 (National Center for Advancing Translational Sciences (NCATS), 2012).
This list was built around the results that the source calls inconclusive (neither active nor inactive); the mix of calls is not that of the screen. Potencies beside an inconclusive call are fits to weak or partial responses and may not hold up. Activity calls are given as the source filed them. Calls follow the shape of the dose curve; as a rule, active = well fitted inhibition curve with a large enough effect; inconclusive = small, poorly fitted or top-dose-only effect; inactive = no such curve, though single readings can be large or run the other way.
% is scaled to controls: 0 for no effect and ±100 for the full control effect; potency is read from the fitted curve at half-maximal effect.

The chains behind the UniProt entries cited, without tags or fusion partners. Where a name states a change or a piece, a line headed by the entry shows the natural chain unless it says otherwise.
UniProt Q99816: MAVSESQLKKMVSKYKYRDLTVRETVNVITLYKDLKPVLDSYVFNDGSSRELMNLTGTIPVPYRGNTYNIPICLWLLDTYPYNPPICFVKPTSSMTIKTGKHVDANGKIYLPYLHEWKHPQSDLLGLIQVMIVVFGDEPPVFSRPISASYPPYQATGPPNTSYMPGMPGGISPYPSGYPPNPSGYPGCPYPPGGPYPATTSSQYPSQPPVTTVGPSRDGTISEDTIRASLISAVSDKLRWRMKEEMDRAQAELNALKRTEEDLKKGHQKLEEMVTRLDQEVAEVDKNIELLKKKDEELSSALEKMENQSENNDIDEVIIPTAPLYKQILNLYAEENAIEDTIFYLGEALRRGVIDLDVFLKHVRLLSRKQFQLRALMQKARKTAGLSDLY

The compounds below were run against Tumor susceptibility gene 101 protein (Homo sapiens) (UniProt Q99816) (assay: qHTS Assay for Iinhibitors of HIV-1 Budding by Blocking the Interaction of PTAP/TSG101: Hit Validation in TR assay). Details: Tsg101 binding domain + Texas Red-labeled PTAP peptide, fluorescence polarization, 20 min; series mostly up to 57.5 µM; activity change, negative = inhibition: at the top concentration.
Method in brief: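 Texas Red-PTAP peptide (50 nM) binding to Tsg101 binding domain (10 uM), both final, in pH 7.5 HEPES buffer, read as polarization after 20 min at room temperature; compounds pinned before peptide addition.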
With Brc1ccc(C2=CC(c3ccco3)n3ncnc3N2)cc1 (stereo not given) the Potency was inconclusive: 32.6 µM [inhibitor, partial curve, poor fit]. In the case of Nc1cnccc1C(=O)O, the “activity change, negative = inhibition” value is reported as inactive: 3.42%. For Cc1cc(C)c[n+](-c2[nH]c(=O)sc2/C=N/NC([S-])=Nc2ccccc2)c1, the Potency was inconclusive: 41.1 µM [inhibitor, partial curve, poor fit]. In the case of C#CCn1cc(C=C2C(=O)c3ccccc3C2=O)c2ccccc21, the Potency is reported as inconclusive: 41.1 µM [inhibitor, single point]. With CC(=Nc1ccc(C)cc1C)c1sc2ccccc2c1O the Potency was inconclusive: 41.1 µM [inhibitor, partial curve, poor fit].
